Our source for the mCherry and percent effect values is the supplement of paper PMC8256030.

Counter-ions that a name gives are not always drawn. This is one part of the list. Repeats in this data set agree poorly, so a single value says little.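 HEK293T cells were given each compound shortly before transfection with a reporter in which red mCherry is followed by the SARS-CoV-2 frameshift element and then GFP in the −1 frame, so GFP appears only after frameshifting.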

The subject of assay [1] is SARS-CoV-2 -1 PRF reporter mCherry-FSE-GFP(-1). Description: mCherry (red) intensity as percent of control; higher = higher upstream reporter expression. The note with it: 10 µM; 24 h; HEK293T.
The test system is the same in assay [2]. The experiment in a line: percent effect, decrease of GFP/mCherry ratio (-1 PRF reporter) relative to controls; higher = stronger frameshift inhibition. The note with it: 10 µM; 24 h; HEK293T.

Regarding `C#C[C@]1(OC(C)=O)CC[C@H]2[C@@H]3CCC4=C/C(=N/O)CC[C@@H]4[C@H]3CC[C@@]21CC`, in assay [1], the mCherry was found to be 124%. Moreover, the percent effect in assay [2] was found to be 3.77%.
Take `Cc1ccsc1/C=C/C1=NCCCN1C`: the mCherry in assay [1] was 141%. Besides, the percent effect in assay [2] came to 0.517%.
The compound `NCCc1cc[nH]n1` [betazole] registered a mCherry in assay [1] of 109%. Further, in assay [2], the percent effect was -3.3%.
The corresponding values for `CC(C)(Oc1ccc(Cl)cc1)C(=O)O` [calcium clofibrate] are 154% and 3.69%.
For `C[C@]12CCC(=O)C=C1CC[C@@H]1[C@@H]2[C@@H](O)C[C@@]2(C)[C@H]1CC[C@]2(O)C(=O)COP(=O)(O)O`, in that order: 98.3% and -0.453%.
The corresponding values for `CCCN(CCC)C(=O)C(Cc1ccc(OCCN(CC)CC)cc1)NC(=O)c1ccccc1` (configuration not stated) [tiropramide] are 77.5% and -1.28%.
For `NC[C@H](O)c1ccc(O)c(O)c1` [Norepinephrine], in assay [1], the mCherry was determined as 77.8%. In addition, the percent effect in assay [2] worked out at 0.339%.
Compound `CC#CCn1c(N2CCC[C@@H](N)C2)nc2c1c(=O)n(Cc1nc(C)c3ccccc3n1)c(=O)n2C` came in with a mCherry in assay [1] of 82.4%. Moreover, in assay [2], the percent effect was -5.84%.
The corresponding values for `CCC(C(=O)NC(N)=O)c1ccccc1` (configuration not stated) [pheneturide] are 143% and -1.14%.
Compound `CC(C)(C)C(=O)OCOC(=O)[C@@H]1N2C(=O)[C@@H](/N=C/N3CCCCCC3)[C@H]2SC1(C)C` [pivmecillinam] returned a mCherry in assay [1] of 66.2%. Besides, the percent effect in assay [2] was -5.56%.
The corresponding values for `Cc1c(NC(=O)c2cccnc2)c(=O)n(-c2ccccc2)n1C` [nifenazone] are 99.5% and -0.565%.
For `C[C@]12CC[C@@H]3c4ccc(O)cc4C[C@@H](CCCCCCCCC[S+]([O-])CCCC(F)(F)C(F)(F)F)[C@H]3[C@@H]1CC[C@@H]2O` (some centres not stated) [Fulvestrant], in that order: 80.7% and -6.45%.
The corresponding values for `O=C(O[C@H]1CN2CCC1CC2)N1CCc2ccccc2[C@@H]1c1ccccc1` [Vesicare] are 117% and -1.33%.
`CCCc1nn(C)c2c(=O)[nH]c(-c3cc(S(=O)(=O)N4CCN(C)CC4)ccc3OCC)nc12` [Sildenafil]: the mCherry in assay [1] was 72.6%. Moreover, the percent effect in assay [2] was -1.6%.
For `Cc1cc(CC(C)CC(C)(C)C)n(O)c(=O)c1` (configuration not stated), in that order: 36.5% and -8.22%.
On to `CN1CCN(c2cc3c(cc2F)c(=O)c(C(=O)O)cn3-c2ccc(F)cc2)CC1`, for which, in assay [1], the mCherry was determined as 76%. The percent effect in assay [2] is -1.79%.
For `C#C[C@]1(OC(C)=O)CC[C@H]2[C@@H]3CCC4=C[C@@H](OC(C)=O)CC[C@@H]4[C@H]3CC[C@@]21C`, in that order: 94.8% and -3.55%.
Regarding `CC[C@H]1OC(=O)[C@H](C)C(=O)[C@H](C)[C@@H](O[C@@H]2O[C@H](C)C[C@H](N(C)C)[C@H]2O)[C@](C)(OC)C[C@@H](C)C(=O)[C@H](C)[C@H]2N(CCCCn3cnc(-c4cccnc4)c3)C(=O)O[C@]12C` [Ketek], the mCherry in assay [1] is 115%. Further, the percent effect in assay [2] was -16.3%.
For `Nc1ccc(S(=O)(=O)Nc2ncccn2)cc1` [sulfadiazine sodium], in that order: 94.9% and 0.806%.
The corresponding values for `COCCc1ccccn1` [metyridine] are 82.9% and -2.74%.
For `C[N+]1(C)CCC(OC(=O)C(O)(c2ccccc2)C2CCCC2)C1` (configuration not stated) [glycopyrronium bromide], in that order: 92.9% and -2.72%.
In assay [1], `NC[C@@H]1CC[C@@H](N)[C@@H](O[C@H]2[C@H](O)[C@@H](O[C@H]3O[C@H](CO)[C@@H](O)[C@H](N)[C@H]3O)[C@H](N)C[C@@H]2N)O1` registered a mCherry of 115%. In assay [2], the percent effect was determined as 0.49%.
For `Clc1ccc(Cn2c(CN3CCCC3)nc3ccccc32)cc1`, in that order: 103% and -3.98%.
In turn, `COC(=O)[C@@H]1[C@H]2C[C@H]3c4[nH]c5ccccc5c4CCN3C[C@@H]2CC[C@@H]1O` [Yohimbine·HCl] yielded a mCherry in assay [1] of 82.5%. Besides, the percent effect in assay [2] was -3.79%.
Regarding `CC[C@@]1(O)C(=O)OCc2c1cc1n(c2=O)Cc2cc3c(CN(C)C)c(O)ccc3nc2-1` [topotecan], the mCherry in assay [1] stood at 167%. The percent effect in assay [2] was found to be 7.13%.
In assay [1], `CSCC[C@H](NC(=O)[C@H](Cc1c[nH]c2ccccc12)NC(=O)CCNC(=O)OC(C)(C)C)C(=O)N[C@@H](CC(=O)O)C(=O)N[C@@H](Cc1ccccc1)C(N)=O` [Pentagastrin] registered a mCherry of 97.4%. Moreover, in assay [2], the percent effect was -1.42%.
The corresponding values for `CO[C@@]1(NC(=O)C(C(=O)O)c2ccc(O)cc2)C(=O)N2C(C(=O)O)=C(CSc3nnnn3C)CO[C@@H]21` (some centres not stated) are 105% and -3.11%.
Turning to `CC[N+]1(CC)CCC(=C(c2ccccc2)c2ccccc2)C1C` (configuration not stated) [prifinium bromide], the mCherry in assay [1] was determined as 92.4%. The percent effect in assay [2] turned out to be 1.51%.
Compound `CCC(c1ccc(O)cc1)C(CC)C(C)c1ccc(O)cc1` (configuration not stated) [benzestrol] displayed a mCherry in assay [1] of 83.4%. Further, in assay [2], the percent effect stood at 1.2%.
For `CCN(CCCCOC(=O)c1ccc(OC)c(OC)c1)C(C)Cc1ccc(OC)cc1` (configuration not stated) [mebeverine], in that order: 114% and -10.8%.
`CCC(C(=O)OCCN(CC)CC)c1ccccc1` (configuration not stated) [butetamate]: the mCherry in assay [1] is 108%. In addition, in assay [2], the percent effect was -1.86%.
In assay [1], `CC(C)(C)[C@]1(O)CCN2C[C@H]3c4ccccc4CCc4cccc(c43)[C@@H]2C1` [(+)-Butaclamol·HCl] registered a mCherry of 76.8%. Moreover, in assay [2], the percent effect worked out at 2.5%.
The corresponding values for `CCCCCCCCOc1ccc(C(=O)c2ccccc2)c(O)c1` [octabenzone] are 91.1% and 8.91%.
Compound `C=C1CC[C@H](O)C/C1=C/C=C1\CCC[C@]2(C)[C@@H]([C@H](C)/C=C/[C@H](C)C(C)C)CC[C@@H]12` gave a mCherry in assay [1] of 103%. In addition, the percent effect in assay [2] is -7.58%.
In assay [1], `CC(=O)[C@@]1(O)CC[C@H]2[C@@H]3CCC4=CC(=O)CC[C@]4(C)[C@H]3CC[C@@]21C` [hydroxyprogesterone] yielded a mCherry of 106%. Moreover, the percent effect in assay [2] is 2.27%.
For `CO/N=C(\C(=O)N[C@@H]1C(=O)N2C(C(=O)O)=C(COC(C)=O)CS[C@H]12)c1csc(N)n1` [Claforan], in assay [1], the mCherry was determined as 99.4%. Moreover, in assay [2], the percent effect was -3.21%.
